This note sets out measurements from PubChem BioAssay AID493014 (National Center for Advancing Translational Sciences (NCATS), 2011).

The assay is described as follows: qHTS Assay to Find Inhibitors of Chronic Active B-Cell Receptor Signaling. The note with it: ABC-DLBCL IkBa-CBG/CBR reporter, luminescence ratio (green luciferase fused to IkBa over red control in TMD8 lymphoma cells), 4 h. The method in brief: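 TMD8 human ABC-DLBCL cells with doxycycline-inducible IκBα–green luciferase fusion and unfused red luciferase, in 0.5% FBS medium; compounds up to 46 uM, 4 h at 37C. Green/red luminescence ratio, filter-overlap corrected, fitted to concentration-response curves.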
On the technique in general: qHTS replaces the single test concentration by a dilution series.

[1] abbreviates: measured here: CBR red luminescence, cell number.
Where [2] appears, read: measured here: IkBa-CBG green luminescence.

Some of the results follow. The main result of the screen is listed elsewhere. These columns were measured beside it and carry no call. Compounds called inactive in the main read-out are mostly missing here. Words in brackets tell the shape of the fitted curve; partial curves, single points and poor fits give uncertain potencies.

What is called AC50 is the concentration giving half of the maximal activity seen. With `O=C(Cn1c(=O)n(Cc2ccco2)c(=O)c2ccccc21)NCC1CCCO1` (configuration not stated), the half-maximal activity concentration (AC50) under setting [1] is 0.13 µM [falling, full curve, poor fit].
Still for that read-out and setting: the same measure for `COc1cccc(CN2C(=O)N(C(C)C)C(N(O)C(=O)NC(C)C)C2(C)C)c1OC` (configuration not stated): 0.631 µM [falling, full curve, poor fit]; for `COc1ccc(NS(=O)(=O)c2cccc(C(=O)NNC(=O)CNC(=O)c3ccccc3F)c2)cc1`: 23.1 µM [rising, single point].
With `Cc1cc(-n2c(C)cc(C(=O)CN3C(=O)NC4(CCCCC4C)C3=O)c2C)no1` (configuration not stated), under setting [1], the half-maximal activity concentration (AC50) is 35.5 µM [falling, partial curve, poor fit].
The same measure, in the same setting: for `CNc1nnc(-c2ccc(C)cc2)c2ccccc12` the value was 3.16 µM [rising, partial curve, poor fit]; for `Cc1ccc(NC(=O)C/C(N)=N/OC(=O)Nc2ccc(C)c(Cl)c2)cc1`, 2.31 µM [rising, partial curve, poor fit]; for `Cc1nc2cc3ccccc3cc2c(=O)[nH]1`, 1.78 µM [falling, full curve].
Consider `CCCOc1c(Cl)cc(/C=N/O)cc1OCC`, for which the concentration at half-maximal activity (AC50) under setting [2] is 23.1 µM [falling, single point].
Take `CCOC(=O)C1(Cc2cccc(OC)c2)CCN(C(C)CC(C)(C)O)CC1` (configuration not stated): the half-maximal activity concentration (AC50) under setting [1] was 3.55 µM [rising, full curve, poor fit].
Take `COC(=O)c1ccc(NC(=O)CN(c2ccc(OC)cc2)S(C)(=O)=O)cc1`: under setting [1], the AC50 was 1.64 µM [rising, partial curve, poor fit].
On the same count and under the same terms, the same measure for `Oc1ccc2nnc3c(Br)cnn3c2c1`: 35.5 µM [falling, single point]; for `CC(C)C(=O)c1ccc(O)c(O)c1`: 8.91 µM [rising, partial curve].
For `CCOC(=O)N1CCN(S(=O)(=O)CCNC(=O)c2ccccc2)CC1`, the AC50 under setting [1] is 1.03 µM [rising, partial curve, poor fit].
Turning to `COc1ccccc1CNC(=O)CSc1nc(N)c(C#N)c(-c2cccs2)c1C#N`, the AC50 under setting [1] is 1.78 µM [falling, partial curve].
On the same count and under the same terms, the same measure for `Cc1cc(/C(N)=N/OC(=O)c2ccc(Cl)cc2)no1`: 0.501 µM [rising, full curve, poor fit]; for `COc1ccc(OC)c(Nc2nc(NCCO)c3ccccc3n2)c1`: 17.8 µM [falling, single point]; for `Cc1ccc(S(=O)(=O)NCCCNc2ccc([N+](=O)[O-])cc2)cc1`: 35.5 µM [falling, single point].
`CSc1ccc(S(=O)(=O)NCc2ccc(Cl)cc2Cl)cc1`: under setting [1], the concentration at half-maximal activity (AC50) is 29.1 µM [rising, single point].
`O=C(NCCc1ccc(F)cc1)c1ccc([N+](=O)[O-])cc1`: the AC50 under setting [1] is 7.08 µM [rising, partial curve, poor fit].
The same measure, in the same setting: the same measure for `CCCC1(CCC)NC(=O)N(CC(=O)c2cc(C)n(-c3ccc4c(c3)OCO4)c2C)C1=O`: 1.64 µM [falling, partial curve, poor fit]; for `Cc1ccc(NC(=O)c2cc(NC(=O)c3ccco3)ccc2N2CCOCC2)cc1Cl`: 0.231 µM [falling, full curve, poor fit].
On to `NS(=O)(=O)c1c(Sc2ccccc2C(=O)O)ccc2ccccc12`, for which the AC50 runs as follows: under setting [1], 11.2 µM [falling, single point]; under setting [2], 0.282 µM [rising, full curve].
Regarding `CC(=O)c1cccc(NC(=O)N2CCCC2C(=O)Nc2ccc3c(c2)OCO3)c1` (configuration not stated), under setting [1], the AC50 was 22.4 µM [rising, single point].
In the case of `CCCNC(=O)c1ccccc1NC(=O)CN(c1ccccc1)S(=O)(=O)N(C)C`, the AC50 under setting [1] is 11.2 µM [falling, partial curve].
In the case of `Cc1ccc(/C=C/C(=O)NC2CCCCCCC2)o1`, under setting [1], the AC50 is 29.1 µM [falling, single point].
Turning to `COCCCNS(=O)(=O)c1cccc(S(=O)(=O)c2cccc(S(=O)(=O)NCCCOC)c2)c1`, under setting [1], the AC50 is 11.2 µM [falling, single point].
Same read-out and setting: the same measure for `COc1ccc2oc(=O)c(C(=O)N3CCCC3)cc2c1`: 4.47 µM [rising, full curve, poor fit].
Take `Cc1ccc(C(=O)NCc2ccco2)cc1`: under setting [1], the concentration at half-maximal activity (AC50) is 28.2 µM [falling, single point].
On to `Oc1ccccc1-c1nc2c3ccccc3c3ccccc3c2[nH]1`, for which, under setting [1], the AC50 is 12.6 µM [falling, partial curve, poor fit].
`COc1cc(CN2CCC(CO)(Cc3cccc(C(F)(F)F)c3)CC2)ccc1F`: under setting [1], the concentration at half-maximal activity (AC50) is 15.8 µM [falling, partial curve, poor fit].
For `CCc1c(C)nc(Nc2nc(C)c3cc(OC)ccc3n2)[nH]c1=O`, the AC50 under setting [1] is 15.8 µM [falling, single point].
As for `O=C(COc1ccc2ccc(=O)oc2c1)OCc1ccccc1`, the concentration at half-maximal activity (AC50) under setting [1] was 11.2 µM [rising, partial curve].
For `C=CCSC1=NC(=O)/C(=C/c2cccs2)S1`, under setting [1], the AC50 was 1.46 µM [falling, full curve, poor fit].
Same read-out and setting: for `Cc1ccc(C)c(N(CC(=O)Nc2ccccc2C(=O)NCc2ccco2)S(=O)(=O)c2ccccc2)c1` the value was 0.517 µM [falling, full curve, poor fit]; for `COc1cccc(NC(=O)CN(c2ccccc2OC)S(=O)(=O)c2cccs2)c1`, 5.17 µM [falling, partial curve]; for `COc1ccc(-c2nnc(Nc3nc4c(OC)cccc4s3)o2)c(OC)c1`, 9.2 µM [falling, partial curve].
As for `Cc1cccc2cc(COC(=O)C(C)C)c(=O)[nH]c12`, under setting [1], the AC50 is 7.08 µM [rising, partial curve, poor fit].
On to `COc1ccc(NC(=O)N/C=C/c2ccco2)cc1`, for which the half-maximal activity concentration (AC50) under setting [1] is 14.1 µM [falling, partial curve, poor fit].
In the case of `O=C1C(=O)N(Cc2cccc([N+](=O)[O-])c2)c2ccccc21`, the AC50 under setting [1] was 1.03 µM [rising, full curve, poor fit] and the AC50 under setting [2] was 23.1 µM [falling, single point].
Take `Cc1ccc(NC(=O)CN(C)C(=O)c2ccc(Cl)c([N+](=O)[O-])c2)cc1`: the AC50 under setting [2] is 20.6 µM [rising, partial curve, poor fit].
